According to patent publication US12060400B2, “Peptides for use in immunotherapy against cancers” (Immatics Biotechnologies GmbH, priority 2018, dated 2024):
For some assays here: Expression grades refer to the transcript from which the peptide derives; gene names, where given, were looked up from the sequence.

Assays:
[1] = tested on: source gene exon mRNA in tumor and normal tissue samples; test: Expression profiling (RNAseq) of genes encoding the peptides, tumor versus normal tissues; parameters: species or system human; settings: RNAseq, Table 9a; for Exon Expression in tumor types vs normal tissue panel: highly over-expressed (++): tumor types in which the peptide's exon is highly over-expressed (++) vs panel of normal tissues; for Exon Expression in tumor types vs normal tissue panel: over-expressed (+): tumor types in which the peptide's exon is over-expressed (+) vs panel of normal tissues
[2] = tested on: HLA molecules of primary tumor and normal tissue samples (cancer entities); test: Identification and label-free LC-MS quantitation of HLA-presented tumor-associated peptides on tissue samples; parameters: species or system human; settings: cancer entities on whose tumor tissue samples the HLA-presented peptide was found (LC-MS); abbreviations in the footnotes of Table 8a

Substance	Exon Expression in tumor types vs normal tissue panel: highly over-expressed (++) [1]	Peptide Presentation on cancer entities [2]	Exon Expression in tumor types vs normal tissue panel: over-expressed (+) [1]
247: peptide found in MPL (gene looked up) (VHSYLGSPF; listed as Homo sapiens) [compound 247]	AML	RCC	–
252: peptide found in SUCNR1 (gene looked up) (RYLIIKYPF; listed as Homo sapiens) [compound 252]	CCC	GBC	AML
263: peptide found in SCN3A (gene looked up) (AYVTEFVSL; listed as Homo sapiens) [compound 263]	SCLC	BRCA, GBC	–
266: peptide found in CSF2 (gene looked up) (TQIITFESF; listed as Homo sapiens) [compound 266]	HNSCC	MEL	NSCLCadeno, NSCLCsquam, OSCAR, UBC
273: peptide found in GPR143 (gene looked up) (VTMYLPLLL; listed as Homo sapiens) [compound 273]	MEL	GC, NSCLCadeno, NSCLCsquam, OC, RCC	–
274: peptide found in PTPRZ1 (gene looked up) (EYSLPVLTF; listed as Homo sapiens) [compound 274]	GBM	AML, CCC, CLL, CRC, GBC, GBM, GC, HCC, HNSCC, MEL, NSCLCadeno, NSCLCother, NSCLCsquam, OC, OSCAR, RCC, SCLC, UBC, UEC	–
275: peptide found in PTPRZ1 (gene looked up) (PEYSLPVLTF; listed as Homo sapiens) [compound 275]	GBM	NHL	–
279: peptide found in MMP20 (gene looked up) (KYKNPYGF; listed as Homo sapiens) [compound 279]	NSCLCsquam	HCC	BRCA, CRC, GC, HNSCC, NHL, NSCLCother, OC, OSCAR, SCLC, UEC
281: peptide found in ROS1 (gene looked up) (MDQNQVVWTF; listed as Homo sapiens) [compound 281]	NSCLCadeno	NSCLCadeno	NSCLCother, NSCLCsquam
284: peptide found in ROS1 (gene looked up) (QFYSTLPNTI; listed as Homo sapiens) [compound 284]	NSCLCadeno	HCC	NSCLCother, NSCLCsquam
289: peptide found in FOXP3 (gene looked up) (RTLNEIYHW; listed as Homo sapiens) [compound 289]	NHL	NSCLCadeno, NSCLCsquam	–
293: peptide found in SLC7A11 (gene looked up) (MYAYAGWFY; listed as Homo sapiens) [compound 293]	NSCLCsquam	CRC	HNSCC, NSCLCadeno, OSCAR
295: peptide found in APOB (gene looked up) (KYNRQSMTL; listed as Homo sapiens) [compound 295]	HCC	HCC	–
299: peptide found in CXCR3 (gene looked up) (FLPALYSLL; listed as Homo sapiens) [compound 299]	CLL	NSCLCadeno	–
300: peptide found in CXCR3 (gene looked up) (LFALPDFIF; listed as Homo sapiens) [compound 300]	CLL	NSCLCadeno	–
301: peptide found in CXCR3 (gene looked up) (RTALSSTDTF; listed as Homo sapiens) [compound 301]	CLL	NHL	–
303: peptide found in ADAMTS12 (gene looked up) (RFLDRGWGF; listed as Homo sapiens) [compound 303]	CCC	CRC	BRCA, CRC, GBC, GC, HNSCC, NSCLCadeno, NSCLCother, NSCLCsquam, OSCAR, PACA, UBC
305: peptide found in MRGPRX1 (gene looked up) (RNAFSIYIL; listed as Homo sapiens) [compound 305]	MEL	CRC, NSCLCadeno	HNSCC

Substance	Exon Expression in tumor types vs normal tissue panel: highly over-expressed (++) [1]	Peptide Presentation on cancer entities [2]	Exon Expression in tumor types vs normal tissue panel: over-expressed (+) [1]
306: peptide found in SLC7A11 (gene looked up) (RYILEPFFI; listed as Homo sapiens) [compound 306]	NSCLCsquam	BRCA, CCC, CRC, GBC, GBM, GC, HCC, HNSCC, MEL, NHL, NSCLCadeno, NSCLCother, NSCLCsquam, OC, OSCAR, PACA, PRCA, RCC, SCLC, UBC, UEC	HNSCC, NSCLCadeno, OSCAR
308: peptide found in TAS2R38 (gene looked up) (AAFISVPLLI; listed as Homo sapiens) [compound 308]	CRC	HCC	GBC, GC, PACA, UBC
309: peptide found in TAS2R38 (gene looked up) (AFISVPLLI; listed as Homo sapiens) [compound 309]	CRC	NSCLCadeno, NSCLCother	GBC, GC, PACA, UBC
310: peptide found in MCOLN2 (gene looked up) (EFINGWYVL; listed as Homo sapiens) [compound 310]	CLL	HCC	NHL
312: peptide found in KCNK18 (gene looked up) (YLCMLYALF; listed as Homo sapiens) [compound 312]	–	CCC, GBC, GC, NHL	GBM
313: peptide found in APOB (gene looked up) (IFMENAFEL; listed as Homo sapiens) [compound 313]	HCC	HCC	–
318: peptide found in FERMT1 (gene looked up) (VQADAKLLF; listed as Homo sapiens) [compound 318]	CRC	GC, NSCLCadeno, UBC	GO, HNSCC, NSCLCsquam, OSCAR, UBC
325: peptide found in LPAR3 (gene looked up) (IFMGAVPTL; listed as Homo sapiens) [compound 325]	–	HNSCC, NSCLCadeno, OC, OSCAR	HNSCC, OC, OSCAR, PRCA
326: peptide found in DYRK4 (gene looked up) (VHMKDFFYF; listed as Homo sapiens) [compound 326]	–	CLL, MEL, NHL, NSCLCadeno, NSCLCsquam, OC, PACA	CLL, NHL
333: peptide found in MYO3B (gene looked up) (RYADLLIYTY; listed as Homo sapiens) [compound 333]	–	UEC	HNSCC, OC, UBC, UEC
334: peptide found in AGTR2 (gene looked up) (KVFGSFLTL; listed as Homo sapiens) [compound 334]	–	UEC	NSCLCother, UEC
335: peptide found in AGTR2 (gene looked up) (RYQSVIYPF; listed as Homo sapiens) [compound 335]	–	UEC	NSCLCother, UEC
341: peptide found in ADCY8 (gene looked up) (RYENVSILF; listed as Homo sapiens) [compound 341]	–	GBM, OC	GBM
343: peptide found in CLEC4C (gene looked up) (EYQQYHPSL; listed as Homo sapiens) [compound 343]	–	NHL	CLL, NHL
344: peptide found in ABCC4 (gene looked up) (YAYATVLTF; listed as Homo sapiens) [compound 344]	–	GBC, GC, NHL, NSCLCadeno, UBC	PRCA
371: peptide found in NOS2 (gene looked up) (FRSWAVQTF; listed as Homo sapiens) [compound 371]	–	AML, CRC, GC	CRC
372: peptide found in PDE11A (gene looked up) (LYHNWRHAF; listed as Homo sapiens) [compound 372]	–	BRCA, OC, RCC	PRCA
